For nine molecules, binding results are on record in publication doi:10.1101/2025.09.08.674995.

Protein sequences, listed by entry. Tags and fused reporters are not part of them. Lines headed by an entry give the natural chain unless they say otherwise; changes in a name come on top.
UniProt P50532: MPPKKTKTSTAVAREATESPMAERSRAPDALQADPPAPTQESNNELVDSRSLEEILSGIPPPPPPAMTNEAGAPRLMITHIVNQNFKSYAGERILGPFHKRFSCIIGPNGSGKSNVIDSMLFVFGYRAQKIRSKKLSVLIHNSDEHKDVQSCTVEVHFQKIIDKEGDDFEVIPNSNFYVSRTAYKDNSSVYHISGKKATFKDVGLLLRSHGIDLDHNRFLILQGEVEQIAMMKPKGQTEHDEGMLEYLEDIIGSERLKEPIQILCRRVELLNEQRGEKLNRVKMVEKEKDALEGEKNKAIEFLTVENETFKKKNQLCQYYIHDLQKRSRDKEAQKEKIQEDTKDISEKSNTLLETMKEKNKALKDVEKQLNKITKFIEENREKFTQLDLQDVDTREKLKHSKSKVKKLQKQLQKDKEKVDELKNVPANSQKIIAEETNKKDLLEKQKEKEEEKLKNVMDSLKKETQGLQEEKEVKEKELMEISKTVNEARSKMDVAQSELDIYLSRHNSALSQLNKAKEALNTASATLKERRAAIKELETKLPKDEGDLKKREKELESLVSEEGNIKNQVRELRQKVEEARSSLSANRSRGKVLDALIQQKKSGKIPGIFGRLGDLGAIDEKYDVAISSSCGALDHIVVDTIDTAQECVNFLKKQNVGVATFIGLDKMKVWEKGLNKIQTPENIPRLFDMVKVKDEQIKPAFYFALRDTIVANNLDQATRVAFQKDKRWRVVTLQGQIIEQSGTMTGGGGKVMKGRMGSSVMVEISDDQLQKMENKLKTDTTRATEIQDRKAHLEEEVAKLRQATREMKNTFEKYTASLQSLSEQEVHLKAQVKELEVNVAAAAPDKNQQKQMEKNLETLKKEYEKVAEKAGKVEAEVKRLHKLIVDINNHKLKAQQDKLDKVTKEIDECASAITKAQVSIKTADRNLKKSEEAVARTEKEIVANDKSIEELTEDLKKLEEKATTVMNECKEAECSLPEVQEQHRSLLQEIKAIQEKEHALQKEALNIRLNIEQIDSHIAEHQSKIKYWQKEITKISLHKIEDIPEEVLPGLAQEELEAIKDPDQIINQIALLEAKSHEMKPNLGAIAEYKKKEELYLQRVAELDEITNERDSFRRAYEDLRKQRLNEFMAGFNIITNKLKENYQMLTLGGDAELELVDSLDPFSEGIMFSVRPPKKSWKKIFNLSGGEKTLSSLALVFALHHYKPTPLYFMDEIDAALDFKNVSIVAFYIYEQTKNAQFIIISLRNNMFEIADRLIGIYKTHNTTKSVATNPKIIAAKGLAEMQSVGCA
UniProt Q9YHY6: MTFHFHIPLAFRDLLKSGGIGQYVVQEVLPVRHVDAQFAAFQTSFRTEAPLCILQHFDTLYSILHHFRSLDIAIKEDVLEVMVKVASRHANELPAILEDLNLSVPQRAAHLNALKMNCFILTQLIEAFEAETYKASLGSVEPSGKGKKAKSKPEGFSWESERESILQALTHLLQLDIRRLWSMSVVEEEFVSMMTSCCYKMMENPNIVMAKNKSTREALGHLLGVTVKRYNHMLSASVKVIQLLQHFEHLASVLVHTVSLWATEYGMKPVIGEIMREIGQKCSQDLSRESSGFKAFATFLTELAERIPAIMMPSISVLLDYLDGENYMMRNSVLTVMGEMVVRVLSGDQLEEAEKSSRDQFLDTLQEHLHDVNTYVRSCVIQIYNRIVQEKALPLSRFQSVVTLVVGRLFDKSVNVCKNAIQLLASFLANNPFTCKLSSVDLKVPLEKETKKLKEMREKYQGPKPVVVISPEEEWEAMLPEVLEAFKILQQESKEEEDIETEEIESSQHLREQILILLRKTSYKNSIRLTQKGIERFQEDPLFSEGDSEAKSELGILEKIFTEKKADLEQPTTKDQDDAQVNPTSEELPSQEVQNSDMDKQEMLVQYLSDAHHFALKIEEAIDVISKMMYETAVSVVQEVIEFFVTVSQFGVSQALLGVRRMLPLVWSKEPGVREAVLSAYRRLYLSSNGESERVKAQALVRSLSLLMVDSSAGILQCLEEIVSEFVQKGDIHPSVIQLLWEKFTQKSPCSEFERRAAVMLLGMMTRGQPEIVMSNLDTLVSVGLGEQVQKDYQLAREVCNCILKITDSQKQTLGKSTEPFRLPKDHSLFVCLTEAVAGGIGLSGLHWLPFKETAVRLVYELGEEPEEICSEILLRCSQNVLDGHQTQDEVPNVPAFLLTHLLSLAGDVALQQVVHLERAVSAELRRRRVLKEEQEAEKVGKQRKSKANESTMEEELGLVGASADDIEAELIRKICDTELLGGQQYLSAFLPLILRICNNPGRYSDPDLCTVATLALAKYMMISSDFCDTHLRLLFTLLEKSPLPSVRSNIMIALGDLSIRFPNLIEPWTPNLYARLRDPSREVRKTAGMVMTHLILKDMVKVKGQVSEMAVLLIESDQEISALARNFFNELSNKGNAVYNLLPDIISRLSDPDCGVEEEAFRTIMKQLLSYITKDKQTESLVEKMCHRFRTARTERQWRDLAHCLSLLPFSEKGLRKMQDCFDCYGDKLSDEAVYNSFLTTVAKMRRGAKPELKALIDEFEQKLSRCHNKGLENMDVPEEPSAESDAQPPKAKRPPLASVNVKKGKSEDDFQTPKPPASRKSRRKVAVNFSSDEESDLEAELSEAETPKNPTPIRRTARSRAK
UniProt P50533: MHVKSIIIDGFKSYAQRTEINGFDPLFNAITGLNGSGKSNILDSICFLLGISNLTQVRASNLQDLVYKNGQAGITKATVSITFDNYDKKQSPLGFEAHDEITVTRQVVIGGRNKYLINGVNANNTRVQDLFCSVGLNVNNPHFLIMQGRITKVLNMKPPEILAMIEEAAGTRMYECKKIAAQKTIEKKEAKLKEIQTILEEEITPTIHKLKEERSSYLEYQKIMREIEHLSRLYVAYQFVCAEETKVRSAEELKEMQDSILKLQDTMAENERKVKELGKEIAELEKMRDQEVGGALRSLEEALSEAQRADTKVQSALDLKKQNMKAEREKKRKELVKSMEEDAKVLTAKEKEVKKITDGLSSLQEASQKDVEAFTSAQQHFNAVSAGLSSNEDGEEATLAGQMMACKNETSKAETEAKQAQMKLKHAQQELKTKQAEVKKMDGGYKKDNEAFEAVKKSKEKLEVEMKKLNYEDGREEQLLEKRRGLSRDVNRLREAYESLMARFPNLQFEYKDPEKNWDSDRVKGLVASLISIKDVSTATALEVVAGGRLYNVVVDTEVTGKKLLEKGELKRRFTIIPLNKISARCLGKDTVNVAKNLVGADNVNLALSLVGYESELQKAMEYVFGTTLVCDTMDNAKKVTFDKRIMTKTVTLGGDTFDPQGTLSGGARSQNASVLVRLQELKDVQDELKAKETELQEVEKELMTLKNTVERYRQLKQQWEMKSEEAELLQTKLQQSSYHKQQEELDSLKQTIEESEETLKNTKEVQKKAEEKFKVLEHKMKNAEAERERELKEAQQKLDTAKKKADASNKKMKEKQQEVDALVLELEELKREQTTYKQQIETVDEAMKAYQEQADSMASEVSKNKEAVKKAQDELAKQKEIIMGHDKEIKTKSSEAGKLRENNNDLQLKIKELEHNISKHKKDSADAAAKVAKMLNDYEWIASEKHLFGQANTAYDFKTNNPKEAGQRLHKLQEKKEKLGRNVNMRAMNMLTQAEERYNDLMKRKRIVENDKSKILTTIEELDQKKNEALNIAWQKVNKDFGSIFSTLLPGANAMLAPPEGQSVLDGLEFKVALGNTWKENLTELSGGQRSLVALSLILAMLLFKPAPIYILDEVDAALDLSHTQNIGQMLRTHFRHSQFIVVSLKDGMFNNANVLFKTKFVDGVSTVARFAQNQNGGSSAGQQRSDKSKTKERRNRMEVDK

In the assay the target is Xenopus laevis condensin I subunit CAP-C, 3xFLAG-tagged (X. laevis) (UniProt P50532). The experiment in a line: tandem affinity co-purification.

Changes are numbered by the printed parent chain. Numbers in names are those of the source. No constants are given. Whether binding was seen depends on the method and setting. Some entries that bind do so weakly or less than the wild type.

“Xenopus laevis CAP-D2 lacking the C-terminal 80 amino acids (CAP-D2_ΔCt80) (from UniProt Q9YHY6 1-1284) (domain or fragment)”: the binding entry is given as “binds”.
Turning to “Xenopus laevis condensin I subunit CAP-E, GST-tagged (from UniProt P50533 1-1203)”, the binding entry was “binds”.
The value for “Xenopus laevis condensin I subunit CAP-D2, full-length (from UniProt Q9YHY6 1-1364)” was “binds”.

B1: Xenopus laevis CAP-G lacking the C-terminal 101 amino acids (CAP-G_ΔCt101) (domain or fragment, UniProt Q9YHB5 1-933)
chain: MVKEGKAMEIKEAFDLSQKAHQNHAKLVSSLRAAYNKTEDKSIFLEEFIHFLKFPLIVYRREPAVERVMDFVAKFVTSFHNSGGENEEEADEENSPVNCLFNFLLQSHGASSMAVRFRVCQLINKLLVNLPENAQIDDDLFDKIHDAMLIRLKDRVPNVRIQAVLALARLQDPSDPDCPVSNAYVHLLENDSNPEVRRAVLTCIAPSAKSLPKIVGRTMDVKEPVRKLAYQVLSEKVHIRALTIAQRVKLLQQGLNDRSAAVKDVIQKKLIQAWLQYSEGDVLDLLHRLDVENSPEVSLSALNALFSVSPVGELVQNCKNLDERKLIPVETLTPENVLYWRALCEHLKSKGDEGEAALENILPEPAVYARYLSSYLQTLPVLSEDQRADMTKIEDLMTKEFIGQQLILTIGCLDTSEEGGRKRLLAVLQEILVMQNTPTSLISSLAELLLFVLKDDDKRIQTVAEIISELREPIVTVDNPKDAAQSRKLQLKLADVKVQLIEAKQALEDSLTNEDYSRASELKEKVKELESLKTQLIKEAEEPEMKEIRVEKNDPETLLKCLIMCNELLKHLSLSKGLGGTLNEICESLILPGITNVHPSVRNMAVLCIGCCALQNKDFARQHLPLLLQILQLDEVKVKNSALNAVFDMLLLFGMDILKSKPTNPDDSQCKAQENADEDISEQEKPGSVDENLTNEEVQEETATVNGILHLFSGFLDSEIAEIRTETAEGLVKLMFSGRLISAKLLSRLILLWYNPVTEEDTKLRHCLGVFFPIFAYSCRSNQECFAEAFLPTLQTLFNAPASSPLADVDVANVAELLVDLTRPSGLNPQNKQSQDYQAAMVHDGLAIKICNEILKDPTAPDVRIYAKALCSLELSRENSTDLLPLLDCAVEDVTDKVCERAIEKVRSQLRSGREEHRVSKETEPQVSKETED
Turning to B1, the binding result is given as “binds”.

B2: Xenopus laevis CAP-H lacking the N-terminal 85 amino acids (CAP-H_ΔNt85) (domain or fragment, UniProt O13067 86-699)
chain: TSLLPKLNNTQISDHYSTCIKLSQENKITTKNAFGLHLIDYMGDILKHKDSELTNFKVAAGTLDASAKIYAVRVDAVHADVYKVLGGLGKESQATEDTENQETDTGPQDGRKNPKRRKCSYKTIERNLNSINRSETERKSEIDPLFQKAAASFDEFSTAGVFLSTLKCHSYHSELHFDADVKPLSTAEETEPPSPGSMDSTELKSLFLQCVEKRPLCPSLSGFRFMQWNSDAQNENLSLLMDKFKKSDHVFDINAEVEDDFVESEAPVADEFDADVCEGMDAGDIGEFAEHREACRLERKGAQLTQIGNGDIGTMCLQLSSCPGEYSYFSPRTMSMWAGPEHWRFRPRQKASTDSDQQRVKKAKKVFELNFEDDIDFEVHFRKTRAATTLTKSTLESQNKKSTTLPADFHYDPDNIARMSLRPKDRIRKTTVQESVSEPEDDIGDYDYNNPNDTSNFCPALQAADSDDDDGAFLGPESNSAGFSAENQMNITSYGESNLVAGQKVNKIEIQYAKTAKKMDMKRLKSSMWSLLANCPESQEEMPSSKEEIDAALITDEQVFSSVTHGLQKRLPPVMAQNLSVPLAFACLLHLANEKNLKLQGMDDLSDVMIMQDD
On to B2, for which the binding entry is “binds”.

B3: Xenopus laevis CAP-H lacking the N-terminal 85 amino acids, S415A (domain or fragment, UniProt O13067 86-699)
chain: B2 chain with S330A
On to B3, for which the binding entry is “binds”.

B4: Xenopus laevis condensin I subunit CAP-G, full-length (protein, UniProt Q9YHB5 1-1034)
chain: MVKEGKAMEIKEAFDLSQKAHQNHAKLVSSLRAAYNKTEDKSIFLEEFIHFLKFPLIVYRREPAVERVMDFVAKFVTSFHNSGGENEEEADEENSPVNCLFNFLLQSHGASSMAVRFRVCQLINKLLVNLPENAQIDDDLFDKIHDAMLIRLKDRVPNVRIQAVLALARLQDPSDPDCPVSNAYVHLLENDSNPEVRRAVLTCIAPSAKSLPKIVGRTMDVKEPVRKLAYQVLSEKVHIRALTIAQRVKLLQQGLNDRSAAVKDVIQKKLIQAWLQYSEGDVLDLLHRLDVENSPEVSLSALNALFSVSPVGELVQNCKNLDERKLIPVETLTPENVLYWRALCEHLKSKGDEGEAALENILPEPAVYARYLSSYLQTLPVLSEDQRADMTKIEDLMTKEFIGQQLILTIGCLDTSEEGGRKRLLAVLQEILVMQNTPTSLISSLAELLLFVLKDDDKRIQTVAEIISELREPIVTVDNPKDAAQSRKLQLKLADVKVQLIEAKQALEDSLTNEDYSRASELKEKVKELESLKTQLIKEAEEPEMKEIRVEKNDPETLLKCLIMCNELLKHLSLSKGLGGTLNEICESLILPGITNVHPSVRNMAVLCIGCCALQNKDFARQHLPLLLQILQLDEVKVKNSALNAVFDMLLLFGMDILKSKPTNPDDSQCKAQENADEDISEQEKPGSVDENLTNEEVQEETATVNGILHLFSGFLDSEIAEIRTETAEGLVKLMFSGRLISAKLLSRLILLWYNPVTEEDTKLRHCLGVFFPIFAYSCRSNQECFAEAFLPTLQTLFNAPASSPLADVDVANVAELLVDLTRPSGLNPQNKQSQDYQAAMVHDGLAIKICNEILKDPTAPDVRIYAKALCSLELSRENSTDLLPLLDCAVEDVTDKVCERAIEKVRSQLRSGREEHRVSKETEPQVSKETEDRTNLQENEEGKQKDEANCDENTDTVKEKAARGKATKGRRKGPAAAATRRKASKAEEAEAEMERQEESQCVPVNTRPSRRAKTAALEKTKKNLSKLLNEEAN
Consider B4, for which the binding result is listed as “binds”.

B5: Xenopus laevis condensin I subunit CAP-H, full-length (protein, UniProt O13067 1-699)
chain: MSTSTPQSGGRRKPETPDSAFLSPATRPQPISAAATPTLLNFTSNDDERERKLRRMSRVIDLQLSNANSPATAISPAQSRGADTPTSLLPKLNNTQISDHYSTCIKLSQENKITTKNAFGLHLIDYMGDILKHKDSELTNFKVAAGTLDASAKIYAVRVDAVHADVYKVLGGLGKESQATEDTENQETDTGPQDGRKNPKRRKCSYKTIERNLNSINRSETERKSEIDPLFQKAAASFDEFSTAGVFLSTLKCHSYHSELHFDADVKPLSTAEETEPPSPGSMDSTELKSLFLQCVEKRPLCPSLSGFRFMQWNSDAQNENLSLLMDKFKKSDHVFDINAEVEDDFVESEAPVADEFDADVCEGMDAGDIGEFAEHREACRLERKGAQLTQIGNGDIGTMCLQLSSCPGEYSYFSPRTMSMWAGPEHWRFRPRQKASTDSDQQRVKKAKKVFELNFEDDIDFEVHFRKTRAATTLTKSTLESQNKKSTTLPADFHYDPDNIARMSLRPKDRIRKTTVQESVSEPEDDIGDYDYNNPNDTSNFCPALQAADSDDDDGAFLGPESNSAGFSAENQMNITSYGESNLVAGQKVNKIEIQYAKTAKKMDMKRLKSSMWSLLANCPESQEEMPSSKEEIDAALITDEQVFSSVTHGLQKRLPPVMAQNLSVPLAFACLLHLANEKNLKLQGMDDLSDVMIMQDD
For B5, the binding entry is recorded as “binds”.

B6: Xenopus laevis CAP-H, full-length, S415A (protein, UniProt O13067 1-699)
chain: B5 chain with S415A
Turning to B6, the binding entry is “binds”.
